Test results published in paper PMC7819943, “Rice protein-binding microarrays: a tool to detect cis-acting elements near promoter regions in rice”.
The other results are listed elsewhere or left out.

Protein sequences, listed by entry. Tags and fused reporters are not part of them.
UniProt Q0JBA9, entry or part of it: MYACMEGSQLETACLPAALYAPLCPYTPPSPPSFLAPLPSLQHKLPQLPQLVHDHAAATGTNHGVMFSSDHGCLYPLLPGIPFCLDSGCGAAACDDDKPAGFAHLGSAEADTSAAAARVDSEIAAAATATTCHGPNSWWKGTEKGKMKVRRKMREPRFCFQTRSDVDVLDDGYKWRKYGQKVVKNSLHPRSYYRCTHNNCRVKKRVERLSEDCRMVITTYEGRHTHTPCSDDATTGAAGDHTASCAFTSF

Target: OsWRKY34 (Oryza sativa, UniProt Q0JBA9 1-250)
Assay: protein-binding microarray (RPBM); PBS, 2% BSA, 51.3 ng/ul salmon testes DNA, 50 uM zinc acetate, 200 nM TF, 25 C, 1 h; high values mean tight binding
Conditions: protein: recombinant; tags: N-terminal polyhistidine and DsRed monomer fusion (pET32a); label: CyDye5-dUTP incorporated in the synthesized complementary strand; 3' TTTTT single-stranded linker to array surface; dsDNA, one strand shown
Summary of the method: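 For the binding signal, per-feature fluorescence intensity was read in arbitrary units on an Axon 4000B scanner. Before scanning, a 2% BSA-blocked custom Agilent array made double-stranded with Cy5-dUTP was washed after 1 h at 25 °C with 200 nM protein and 50 µM zinc acetate. The proteins were Ni–NTA-purified transcription factors with N-terminal polyhistidine and DsRed fusions, expressed in E. coli BL21-CodonPlus.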

Sequence | binding signal
ACCCTTCCGCTTTGCCCCTGCTGCCTACACCGCCCCACCGCGGAGTCACCTAGTGCAG | 8300 fluorescence intensity (a.u.)
CCTCACGCCATCATGTACTGTGCTGCTTTGCCGTTTCGATCGGAGTCACCTAGTGCAG | 10300 fluorescence intensity (a.u.)
CAACCGGTGGCCCGGTCCGGTATTTTCGTCCGGTTTTTTCCGGAGTCACCTAGTGCAG | 9650 fluorescence intensity (a.u.)
CAGTCGATCCGCCCCACCGCTGTGTGTGTCTCAGTCCTCGCGGAGTCACCTAGTGCAG | 8070 fluorescence intensity (a.u.)
ACTAATCATCTCAATTTCTCAAGCCCAACCGTATTGGCTCCGGAGTCACCTAGTGCAG | 8520 fluorescence intensity (a.u.)
TTTTGCTATTTCGTTTATGTTCAAATGATGTATTTGTTTTCGGAGTCACCTAGTGCAG | 9030 fluorescence intensity (a.u.)
AGTAATAAACGTAACCTTTTCCTCCTATTTTATTTCACCTCGGAGTCACCTAGTGCAG | 8290 fluorescence intensity (a.u.)
CAAACATTATTTTAAAAGTCAACGGCGTCATCTATTTAAACGGAGTCACCTAGTGCAG | 9430 fluorescence intensity (a.u.)
ATGGTGTTTGATGCTCGTATGTTGCTATTCAATTTTGATGCGGAGTCACCTAGTGCAG | 8400 fluorescence intensity (a.u.)
TTTGACACCGTTGATTTTTTAATATGTGTTTGACCATTCGCGGAGTCACCTAGTGCAG | 9260 fluorescence intensity (a.u.)
TGTAGTGTCAAACATGCCTCGTCCACATATATGCACAAACCGGAGTCACCTAGTGCAG | 9120 fluorescence intensity (a.u.)
CATCAATACATCACACTACTCATGGAGGCATCACTATATTCGGAGTCACCTAGTGCAG | 9240 fluorescence intensity (a.u.)
ATAAACCCACATCCTTAGCGCGGCCAGTTCGTCGTCTGAACGGAGTCACCTAGTGCAG | 10500 fluorescence intensity (a.u.)
CCTTAGCAGCCTCTTTATGGCAGTTTGACTGTTGACCCGTCGGAGTCACCTAGTGCAG | 10200 fluorescence intensity (a.u.)
CTAGATGGCCTTATTATCTCTACATCACACGTTATATCTACGGAGTCACCTAGTGCAG | 8060 fluorescence intensity (a.u.)
GGGGTATGTAAGGGATTGAGCAAAATTCAGGGTATAGAAGCGGAGTCACCTAGTGCAG | 10700 fluorescence intensity (a.u.)
TTCAATTTCTCCCGTGCATGTCCTGTTTCAATTTCGTCCACGGAGTCACCTAGTGCAG | 12500 fluorescence intensity (a.u.)
TATGTATTCTTTTTTAAAAATCTTAGGTATTTTCATTTGACGGAGTCACCTAGTGCAG | 8960 fluorescence intensity (a.u.)
AACCGTGTCTGTCTTATCATAATCACGTCTCAACTTTCTGCGGAGTCACCTAGTGCAG | 8980 fluorescence intensity (a.u.)
CCAGCGGTTCCCTTTCATCTATCCTCGTTTCTAAAATCACCGGAGTCACCTAGTGCAG | 8920 fluorescence intensity (a.u.)
GCAACCACCACCGTCTCGCCTGCATCGCTCGCCGCCGCATCGGAGTCACCTAGTGCAG | 14600 fluorescence intensity (a.u.)

Sequence | binding signal
CCGTTGACTTTTTAGTACGTGTTTGACCATTCGTCTTATTCGGAGTCACCTAGTGCAG | 32300 ± 947 fluorescence intensity (a.u.)
TACAGCATTAGTACGTCTTAATTGCAACTGTCGGTCAACTCGGAGTCACCTAGTGCAG | 8430 fluorescence intensity (a.u.)
GCTTATTGTTTCTTTGTTTAAATCAGATAACATGTCTTCTCGGAGTCACCTAGTGCAG | 10500 fluorescence intensity (a.u.)
TTTCCCTTGGTTTGATGCGGCGGCGGTGGTGAGGGTGGGACGGAGTCACCTAGTGCAG | 8510 fluorescence intensity (a.u.)
TCGGCGTCCCGTCTGTTCGCTACGCACGCACTCACTCACTCGGAGTCACCTAGTGCAG | 8420 fluorescence intensity (a.u.)
CAGGTCTTAGTTTTATGCTTGATAATTGAGGGATTATTTTCGGAGTCACCTAGTGCAG | 8650 fluorescence intensity (a.u.)
GCCTAGGGTTAGGGTTCGAGACTGGGAAATCGGGTTGGGGCGGAGTCACCTAGTGCAG | 8330 fluorescence intensity (a.u.)
GGCGGGGAATATTGTCCAATCCAGCGCGCCTGTAGGCGGACGGAGTCACCTAGTGCAG | 9080 fluorescence intensity (a.u.)
AGGTGGTCGGGGATGGCAACGATAGGTCAGGGACGACGGACGGAGTCACCTAGTGCAG | 9240 fluorescence intensity (a.u.)
TGATGTTCTTGCCAAGACCCCGACATTTTCTCTTGATTCTCGGAGTCACCTAGTGCAG | 8390 fluorescence intensity (a.u.)
CTCCGTCGCCACTCACACCCATGGCCTTGACCGCTACTAGCGGAGTCACCTAGTGCAG | 9550 fluorescence intensity (a.u.)
TGTGTATCCATTTCTGGTTTTGTGGTTAAGGGACTTTAAACGGAGTCACCTAGTGCAG | 8520 fluorescence intensity (a.u.)
TCTTATGCTTACCCTCTTTGTTGTATCAGTTCATACCATACGGAGTCACCTAGTGCAG | 8080 fluorescence intensity (a.u.)
GGCCCACCAACACTCTGACCCCACCAAATCAGTGACTGAACGGAGTCACCTAGTGCAG | 8210 fluorescence intensity (a.u.)
GGTGGGATGGGAGAGGAAGGAAGGGTCTCGCGGCGCGTCGCGGAGTCACCTAGTGCAG | 9280 fluorescence intensity (a.u.)
CCGCCGCTCCAGCCCACCACCGCCGCCACTTCAGCTAGCTCGGAGTCACCTAGTGCAG | 9950 fluorescence intensity (a.u.)
CAAGGACCAAAGTGCAAAACCCCACCTCGAATTCGATTTCCGGAGTCACCTAGTGCAG | 8250 fluorescence intensity (a.u.)
GTTTACTCTCTGCGACTGCACCATCTCCATGACAGCTTAGCGGAGTCACCTAGTGCAG | 10900 fluorescence intensity (a.u.)
CGCCATCATCGTCGTCGTCGTTGCCGTCGATAATCCTGACCGGAGTCACCTAGTGCAG | 8420 fluorescence intensity (a.u.)
CTCTTGGCGATTTGCGGAAGTTGTTGTTGTCCCCTTGCTCCGGAGTCACCTAGTGCAG | 8060 fluorescence intensity (a.u.)
CCCATCTCGGGGTTGGAGGTGAGCTTGGAGCTCCCTGTTCCGGAGTCACCTAGTGCAG | 8800 fluorescence intensity (a.u.)

A different layout for some results above:
Sequence,binding signal
CTCCGTCGCCACTCACACCCATGGCCTTGACCGCTACTAGCGGAGTCACCTAGTGCAG,9550 fluorescence intensity (a.u.)
TGTGTATCCATTTCTGGTTTTGTGGTTAAGGGACTTTAAACGGAGTCACCTAGTGCAG,8520 fluorescence intensity (a.u.)
TCTTATGCTTACCCTCTTTGTTGTATCAGTTCATACCATACGGAGTCACCTAGTGCAG,8080 fluorescence intensity (a.u.)
GGCCCACCAACACTCTGACCCCACCAAATCAGTGACTGAACGGAGTCACCTAGTGCAG,8210 fluorescence intensity (a.u.)
GGTGGGATGGGAGAGGAAGGAAGGGTCTCGCGGCGCGTCGCGGAGTCACCTAGTGCAG,9280 fluorescence intensity (a.u.)
CCGCCGCTCCAGCCCACCACCGCCGCCACTTCAGCTAGCTCGGAGTCACCTAGTGCAG,9950 fluorescence intensity (a.u.)
CAAGGACCAAAGTGCAAAACCCCACCTCGAATTCGATTTCCGGAGTCACCTAGTGCAG,8250 fluorescence intensity (a.u.)
GTTTACTCTCTGCGACTGCACCATCTCCATGACAGCTTAGCGGAGTCACCTAGTGCAG,10900 fluorescence intensity (a.u.)
CGCCATCATCGTCGTCGTCGTTGCCGTCGATAATCCTGACCGGAGTCACCTAGTGCAG,8420 fluorescence intensity (a.u.)
CTCTTGGCGATTTGCGGAAGTTGTTGTTGTCCCCTTGCTCCGGAGTCACCTAGTGCAG,8060 fluorescence intensity (a.u.)
